Assay results from US7195900B2, “Cloning and expression of D-amino acid oxidase from arthrobacter protophormiae” (Degussa AG, priority 2002, dated 2007).

Chains of the proteins cited; added tags and fusions are not shown. Lines headed by an entry give the natural chain unless they say otherwise; changes in a name come on top.
UniProt Q7X2D3: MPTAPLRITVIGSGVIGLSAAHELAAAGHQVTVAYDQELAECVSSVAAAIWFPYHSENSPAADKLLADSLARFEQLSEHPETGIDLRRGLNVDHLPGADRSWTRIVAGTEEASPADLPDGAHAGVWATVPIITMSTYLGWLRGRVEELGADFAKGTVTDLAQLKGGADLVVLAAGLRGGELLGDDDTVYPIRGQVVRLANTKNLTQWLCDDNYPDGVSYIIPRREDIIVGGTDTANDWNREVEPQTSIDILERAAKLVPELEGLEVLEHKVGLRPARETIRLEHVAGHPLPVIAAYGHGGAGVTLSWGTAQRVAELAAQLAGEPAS

Target: T1, recombinant D-AAO (Glutamicibacter protophormiae, UniProt Q7X2D3)
T1 construct: The restriction sites NdeI and BamHI were attached to the dao gene by PCR; made in house; host or cells: E. coli BL21(DE3)
Assay: Substrate specificity of the recombinant D-AAO (photometric peroxidase/o-dianisidine test)
Format: biochemical, Arthrobacter protophormiae
Conditions: read-out: Relative activity
Protocol: To isolate D-AAO-forming microorganisms, soil samples were plated out on a nutrient medium in which coryneform bacteria can be concentrated: Na propionate 0.20 g; KNO3 0.01 g; KH2PO4 0.10 g; NaCl 0.25 g; MgSO4.7 H2O 0.10 g; CaCO3 0.02g; trace elements; vitamin solution; cycloheximide 0.05 g; if appropriate, agar 20.00 g; final pH 7.0. Microorganisms which grew on this medium were then transinoculated into a complex medium (DSM 65) with the following composition (per 1l): glucose 4.00 g; yeast extract 4.00 g; malt extract 10.00 g; agar 20 g; final pH 7.2. The strains were then multiplied in liquid medium (DSM 65), harvested by centrifugation, broken down, and the cell-free supernatant was obtained by centrifugation (=crude extract). This crude extract was then employed as an enzyme source for the photometric test for D-AAO activity. The test batch contained: 20 μl amino acid solution (100 mM); 80 μl TEA/o-dianisidine buffer; 10 μl peroxidase soln. (1,000 U/ml); 70 μl H2O; 20 μl crude extract. The measurement was carried out at 436 nm; 1 U corresponds to an amount of enzyme which converts 1 μmol of amino acid or 1 μmol of o-dianisidine per min (extinction coefficient ε for o-dianisidine=8.1 mM^−1 cm^−1).
A partial substrate spectrum was recorded for D-AAO (Table 2).
The stereoselectivity of the D-AAO was tested with the amino acids L-leucine, L-methionine and L-lysine. […]

`NCCC[C@@H](N)C(=O)O` [D-Ornithine] showed an activity at 10000 µM of 15%.
